The values that follow come from US12226427B2, “Treatment for gene reactivation” (YISSUM RESEARCH DEVELOPMENT COMPANY OF THE HEBREW …, priority 2018, dated 2025).

This data set concerns FXS-NPCs. Nature of the data set: RNA sequencing (transcriptome) analysis of treated FXS-NPCs. The data set is classed as cell-based, human. The note with it: X chromosome genes unexpressed in untreated cells.

Some results come without the dose or concentration used.

`Nc1ncn([C@H]2C[C@H](O)[C@@H](CO)O2)c(=O)n1` [5-azadC, 5-aza-2-deoxycytidine]: the “Percentage of upregulated genes in genes that escape XCI versus genes that undergo XCI” value turned out to be 2.33 fold.
